# Measured values published in patent US12404299 (dated 2025).
# Test: general procedure: peptide synthesis; CTC resin, Wang resin, or SASRIN resin; DIC or EDCI·HCl, or DIC and Oxyma; HATU/DIPEA for cyclisation
# Details: whole synthesis
substance,measurement,setting,value
"(5S, 8S, 11S, 15R, 18S, 23aS, 29S, 35S, 37aS)-8,11-di((S)-sec-butyl)-29-(3-chloro-4-(trifluoromethyl)phenethyl)-35-(cyclohexylmethyl)-18-isopropyl-5,6,12,15,16,19,21,21,22,33,36-undecamethyltetracosahydro-2H-azeto[2,1-u]pyrrolo[2,1-i]",isolated mass,,4.1 mg
same,isolated yield,scale of the general procedure usually 0.10 g resin,9%
